In the assay the target is LC3B (porcine (endogenous in 3D4/21)). As to the kind of experiment: co-IP; 3D4/21 cell lysate pre-cleared with Protein A+G agarose beads; LC3B antibody or normal IgG on Protein A+G agarose beads, rotated overnight at 4°C, washed with PBS four times; Western blot for LC3, SOCS1 and SOCS2. Background: In western blotting, separated proteins are transferred to a membrane and probed.

This note sets out measurements from article PMC9279577.

Results are given in words; binding and its absence hold for the method and conditions named. Binding seen in cells or lysates may run through a third protein. Binding calls can cover weak binding; strength is not graded here.

B1: SOCS1 (protein, UniProt E7CR04 1-220)
chain: MVAHNQVAADNAISTAAEPRRRPEHSSSSSSSSSSSSSSSSPGVPARPRPCPAAPAPAPGDTHFRTFRSHADYRRITRASALLDACGFYWGPLSVHGAHERLRAEPVGTFLVRDSRQRNCFFALSVKMASGPTSIRVHFQAGRFHLDGSRESFDCLFELLEHYVAAPRRMLGAPLRQRRVRPLQELCRQRIVATVGRENLARIPLNPVLRDYLSSFPFQI
On to B1, for which the binding entry was “binds”.
